For at least one compound, name, drawing or mass did not settle the structure. Some of these results come from one statement about several compounds together.
Legend:
[1] = Intravenous and per oral pharmacokinetics in male Balb/c mice; type: in vivo; conditions: PO dose (50 mg/kg), single dose
Procedure: The husbandry conditions were maintained as described in animal facility SOPs during the study period. Animals procured were quarantined for 7 days followed by acclimatization for 5 days. The study was carried out for two days. Male Balb/c mice of age 10-12 weeks (18-25 g) and male Sprague Dawley rats 8-10 weeks (220-280 g) were used. The food was with held for a period of 4-12 hr prior to dosing and returned to all animals 4h post dosing and water supplied ad libitum. The doses of FT1518 were as follows: Mice: 10 mg/kg intravenous (i.v) and 50 mg/kg oral (p.o); rat—5 mg/kg intravenous (i.v) and 10 mg/kg oral (p.o). The formulation used in i.v and p.o studies were 10% dimethylsulfoxide (DMSO)+30% polyethyleneglycol 400 (PEG400)+60% water and 0.5% methylcellulose (MC)+0.1% tween 80. Blood was collected at the predetermined time points in mice (cardiac puncture) and Jugular vein (rats) over a period of 24h in eppendorf tubes containing K2EDTA as anticoagulant. The plasma was isolated from the blood and stored at −80° C. until bioanalysis. Species: BALB/C mice Gender: Male Dose: IV (10 mg/kg), Single dose • PO (50 mg/kg), single dose Formulation: • IV—DMSO: PEG400:Water (10:30:60 v/v) • PO— 0.5% methylcellulose and 0.1% Tween 80 in water Sampling Time Points: • IV: 5 min, 30 min, 1 h, 2, 4, 8 and 24 h post dose • PO: 10 min, 30 min, 1 h, 2, 4, 8 and 24 h post dose. […]

[2] = test system: MDA-MB-231 (breast cancer); assay: Anti-proliferative effect, MDA-MB-231; type: cell-based; conditions: listed as FT1518-base
Procedure: (§1) All in vitro experiments like protein binding, microsomal stability, cell cytotoxicity were performed as per study protocols of respective experiments.

breast cancer (MCF-7) = assay: In vitro assay, MCF-7; type: cell-based; conditions: breast cancer (MCF-7) line; listed as FT 1518 base form
[3] = test system: colon carcinoma cancer (HCT-116); assay: In vitro assay, HCT-116; type: cell-based; conditions: colon carcinoma cancer (HCT-116) line; listed as FT 1518 base form
prostate cancer (PC-3) = assay: In vitro assay, PC-3; type: cell-based; conditions: prostate cancer (PC-3) line; listed as FT 1518 base form
Procedure: as §1

Which T1/2 [1] does the source give for CCC(CC)n1cnc2c(-c3cnc(N)cn3)nc(N3CC4CCC(C3)O4)nc21 [FT-1518 base] here?
Its T1/2 is 4.6 ± 0.9 h.

What about the IC50 [2] of the same compound?
The IC50 was greater than 10 µM.

And the “IC50, MCF-7” value (breast cancer (MCF-7))?
Its value is 246 µM.

What about the “IC50, HCT-116” value [3] of the same compound?
The value was 63 µM.

What about the “IC50, PC-3” value (prostate cancer (PC-3)) of the same compound?
Its value is 42 µM.

— patent publication US11820782B2, “Salt forms of amino pyrazine purine based selective kinase inhibitor” (FTG BIO LLC, priority 2018, dated 2023)
